Reference: patent US7442373B2 (priority 2003, dated 2008)

Key:
[1] = tested on: Bacillus anthracis spores; details: Hartley, guinea pig, in vivo
[2] = tested on: Bacillus anthracis Ames; parameters: species or system Swiss-Webster mice; details: mouse, in vivo

O=C(O)c1cn(C2CC2)c2cc(N3CCNCC3)c(F)cc2c1=O [ciprofloxacin]
dose at which drug toxicity was noted [1]: 5.4 mg/day | animals protected [2]: 60%
